Measurements reported in the supplement of paper PMC11348887.
Counter-ions that a name gives are not always drawn. Some of the results follow. Most entries show no effect beyond the scatter of the controls.

Test system: hPSC-derived cortical neurons (WA09)
Assay: total neurite length per nucleus (MAP2) z-score; higher = more neurite growth
Conditions: 5 µM; treatment: days 7-14 after plating, readout day 21

Compound	total neurite length per nucleus (z-score)
CN1CCC[C@H]1c1cccnc1 [Nicotine Ditartrate]	0.54
C[C@H](NC(=O)CCc1nc2ccccc2c(=O)[nH]1)c1ccccc1	0.313
COC(=O)Nc1nc2cc(C(=O)c3cccs3)ccc2[nH]1 [Nocodazole]	-0.984
COc1ccc(-c2nc3cc(C4=NNC(=O)CC4C)ccc3[nH]2)cc1 (configuration not stated) [Pimobendan]	1.35
Cc1c(O)cccc1C(=O)N[C@@H](CSc1ccccc1)[C@H](O)CN1C[C@H]2CCCC[C@H]2C[C@H]1C(=O)NC(C)(C)C [Nelfinavir Mesylate]	-1.53
NC(=O)c1cccc(-c2cccc(OC(=O)NC3CCCCC3)c2)c1	1.07
CCOC(=O)c1ccc(OC(=O)CCCCCNC(=N)N)cc1 [Gabexate Mesylate]	-0.973
C[C@@H](Nc1cc(F)cc(F)c1)c1cc(C(=O)N(C)C)cc2c(=O)cc(N3CCOCC3)oc12	-0.548
CC1=C(C(=O)OC2CCCCC2)C(c2ccc([N+](=O)[O-])cc2)C2=C(CC(C)(C)CC2=O)N1 (configuration not stated)	0.0384
COc1ccc2c(c1)c(CC(=O)OCC(=O)O)c(C)n2C(=O)c1ccc(Cl)cc1 [Acemetacin]	0.0452
CN1CCOC(c2ccccc2)c2ccccc2C1 (configuration not stated) [Nefopam HCl]	-0.728
COc1ccc(COc2ccc(Cc3cnc(N)nc3N)cc2OC)cc1	0.143
CCC[C@@H]1C[C@@H](C(=O)N[C@@H]([C@H]2O[C@H](SC)[C@H](O)[C@@H](O)[C@H]2O)[C@H](C)Cl)N(C)C1 [Clindamycin]	0.424
OC[C@H]1OC(O)[C@H](O)[C@@H](O)[C@@H]1O (some centres not stated) [Dextrose]	1.36
CC(=O)O[C@]1(C(C)=O)CC[C@H]2[C@@H]3C=C(Cl)C4=CC(=O)CC[C@]4(C)[C@H]3CC[C@@]21C [Chlormadinone acetate]	0.655
CC(C)[C@H](O)C(=O)N[C@@H](C)C(=O)N[C@@H]1C(=O)N(C)CCc2ccccc21	0.79

Compound	total neurite length per nucleus (z-score)
Nc1nc(F)nc2c1ncn2[C@@H]1O[C@H](CO)[C@@H](O)[C@@H]1O [Fludarabine]	2.37
C[C@]12CC[C@H](O)CC1=CC[C@@H]1[C@@H]2CC[C@]2(C)C(n3cnc4ccccc43)=CC[C@@H]12 [Galeterone]	-0.805
O=C(NCc1ccccc1)c1csc(Nc2ccncn2)n1 [Thiazovivin]	-0.246
CCCCNc1ncc(C(=O)NCc2ccc(-n3ccnc3)cc2)c(NC2CCC(O)CC2)n1 (configuration not stated)	0.154
CN1CCN2c3ncccc3Cc3ccccc3C2C1 (configuration not stated) [Mirtazapine]	0.551
C=CC(=O)Nc1ccc(CN2C(=O)N(c3cc(OC)cc(OC)c3)Cc3cnc(Nc4ccc(N5CCN(C)CC5)cc4)nc32)cc1	-4.74
C/C(=N\NC(=S)N1CCC1)c1ccccn1	-4.38
CCCCOc1c(C(=O)c2c(F)cc(C)cc2F)c[nH]c2nncc1-2	-0.796
CC/C(=C(\c1ccccc1)c1ccc(OCCN(C)C)cc1)c1ccccc1 [Tamoxifen]	-2.87
O=C(/C=C/C=C/c1ccc2c(c1)OCO2)N1CCCCC1 [Piperine]	1.3
O=C(O)C[C@H](O)C[C@H](O)/C=C/c1c(C2CC2)nc2ccccc2c1-c1ccc(F)cc1 [Pitavastatin Calcium]	-1.93
CCOc1cc2ncc(C#N)c(Nc3ccc(F)c(Cl)c3)c2cc1NC(=O)/C=C/CN(C)C [Pelitinib (EKB-569)]	-3.22
CCc1cncnc1N1CCN(Cc2nc3ccc(C(F)(F)F)cc3[nH]2)CC1	-0.984
C#Cc1cccc(Nc2ncnc3cc(OCCOC)c(OCCO)cc23)c1	0.689
CC1(C)[C@@H](O[C@H]2O[C@H](C(=O)O)[C@@H](O)[C@H](O)[C@H]2O[C@@H]2O[C@H](C(=O)O)[C@@H](O)[C@H](O)[C@H]2O)CC[C@]2(C)[C@H]3C(=O)C=C4[C@@H]5C[C@@](C)(C(=O)O)CC[C@]5(C)CC[C@@]4(C)[C@]3(C)CC[C@@H]12 [Ammonium Glycyrrhizinate]	0.312
COc1cccc(-c2cc(F)ccc2C2Cc3nc(N)nc(C)c3C(=O)N2)n1 (configuration not stated)	-3.19

Reprinted from above (2 entries):
Compound	total neurite length per nucleus (z-score)
C[C@]12CC[C@H](O)CC1=CC[C@@H]1[C@@H]2CC[C@]2(C)C(n3cnc4ccccc43)=CC[C@@H]12 [Galeterone]	-0.805
O=C(NCc1ccccc1)c1csc(Nc2ccncn2)n1 [Thiazovivin]	-0.246
